{
  "source": "patent US20100311759A1",
  "about": "“ANTIPARASITIC AGENT FOR FISH AND METHOD OF CONTROLLING PROLIFERATION OF FISH PARASITES” (NIPPON SUISAN KAISHA, LTD., priority 2007, published 2010)",
  "key": {"Cryptocaryon irritans [1]": {"test_system": "Cryptocaryon irritans", "test": "Example 1: oral administration against parasitism of Cryptocaryon irritans on Pagrus major (1)", "settings": "8 mg pyrimethamine/kg body weight/day orally three days; three days after the exposure"}, "Cryptocaryon irritans [2]": {"test_system": "Cryptocaryon irritans", "test": "Examples 3 and 4: oral administration of single inhibitors and a combination, body length of Cryptocaryon irritans on Pagrus major (FIG. 4)", "type": "in vivo", "settings": "60 mg/kg fish body weight/day for three days; 60 parasites per plot; P≦0.01", "excerpt": "During the rearing period, 1.4 liters/min. of seawater was supplied. […] After exposure, seven fish each were moved into six 100-liter aquariums. During the rearing period, 1.4 liters/min. of seawater was supplied."}},
  "note": "For at least one compound, name, drawing or mass did not settle the structure.",
  "data": [
    {"smiles": "CCc1nc(N)nc(N)c1-c1ccc(Cl)cc1", "note": "[pyrimethamine]", "values": [
      {"measurement": "number of parasites (left gills, FIG. 1, control plot = one)", "setting": "Cryptocaryon irritans [1]", "value": "tend to be large"},
      {"measurement": "growth rate of parasites (body length as percentage of control plot), difference from control plot", "setting": "Cryptocaryon irritans [2]", "value": "statistically significant difference"}
    ]}
  ]
}
